These are yes or no findings as the source states them, for the method shown. Binding seen in cells or lysates may run through a third protein. A yes stands for co-enrichment or nearness to the bait. Other partners may have been found.
Experiments:
[1] = target: BirA-tagged YAP (yes-associated protein), N-terminal fusion with the biotin ligase BirA and a Flag-tag (UniProt P46937); test: proximity labelling; BioID: BirA-Flag-YAP or -TAZ induced with doxycycline 24 h in stable HLF cells, 50 µM biotin 24 h; streptavidin magnetic beads; LC-MS/MS of four replicates; hits against the BirA-only control (fold change ≥ 2; false discovery rate ≤ 0.05)
[2] = target: BirA-tagged TAZ (WW-domain containing transcription regulator 1, WWTR1), N-terminal fusion with the biotin ligase BirA and a Flag-tag (UniProt Q9GZV5); test: as above

Amino acid sequences for entries named in this document (tags omitted).
UniProt P46937: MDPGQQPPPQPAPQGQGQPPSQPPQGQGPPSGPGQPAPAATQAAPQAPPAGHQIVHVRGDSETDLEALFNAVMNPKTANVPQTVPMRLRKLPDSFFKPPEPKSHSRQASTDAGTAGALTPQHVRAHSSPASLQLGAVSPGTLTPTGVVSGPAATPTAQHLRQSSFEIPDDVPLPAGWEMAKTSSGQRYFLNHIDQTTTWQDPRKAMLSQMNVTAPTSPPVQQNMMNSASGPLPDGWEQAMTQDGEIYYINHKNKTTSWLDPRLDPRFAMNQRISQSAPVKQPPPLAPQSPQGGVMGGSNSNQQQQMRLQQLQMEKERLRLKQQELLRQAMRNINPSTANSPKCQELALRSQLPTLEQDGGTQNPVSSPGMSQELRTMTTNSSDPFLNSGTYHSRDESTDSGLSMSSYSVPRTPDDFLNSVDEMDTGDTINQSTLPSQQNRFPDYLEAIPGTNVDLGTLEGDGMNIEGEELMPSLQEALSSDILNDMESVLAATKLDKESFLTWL
UniProt Q9GZV5: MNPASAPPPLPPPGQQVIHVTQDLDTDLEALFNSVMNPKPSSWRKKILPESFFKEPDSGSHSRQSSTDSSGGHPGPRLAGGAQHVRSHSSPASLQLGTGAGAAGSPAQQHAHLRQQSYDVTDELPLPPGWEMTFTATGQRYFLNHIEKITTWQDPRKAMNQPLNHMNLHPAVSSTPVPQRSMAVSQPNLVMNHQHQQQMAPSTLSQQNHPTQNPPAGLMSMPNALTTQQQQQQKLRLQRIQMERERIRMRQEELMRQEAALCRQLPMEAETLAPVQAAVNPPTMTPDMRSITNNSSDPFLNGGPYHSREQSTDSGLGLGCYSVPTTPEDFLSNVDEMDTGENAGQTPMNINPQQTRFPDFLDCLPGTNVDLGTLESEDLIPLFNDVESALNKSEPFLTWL
UniProt P46108: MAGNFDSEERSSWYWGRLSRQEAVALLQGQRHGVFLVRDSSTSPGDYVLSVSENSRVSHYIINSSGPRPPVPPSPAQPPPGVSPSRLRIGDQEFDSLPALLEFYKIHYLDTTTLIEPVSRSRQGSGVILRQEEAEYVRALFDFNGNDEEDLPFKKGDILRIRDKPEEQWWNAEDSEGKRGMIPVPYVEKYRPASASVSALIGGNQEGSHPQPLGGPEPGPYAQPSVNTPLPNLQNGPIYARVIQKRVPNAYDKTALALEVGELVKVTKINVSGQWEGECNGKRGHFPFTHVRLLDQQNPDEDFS
UniProt Q70E73: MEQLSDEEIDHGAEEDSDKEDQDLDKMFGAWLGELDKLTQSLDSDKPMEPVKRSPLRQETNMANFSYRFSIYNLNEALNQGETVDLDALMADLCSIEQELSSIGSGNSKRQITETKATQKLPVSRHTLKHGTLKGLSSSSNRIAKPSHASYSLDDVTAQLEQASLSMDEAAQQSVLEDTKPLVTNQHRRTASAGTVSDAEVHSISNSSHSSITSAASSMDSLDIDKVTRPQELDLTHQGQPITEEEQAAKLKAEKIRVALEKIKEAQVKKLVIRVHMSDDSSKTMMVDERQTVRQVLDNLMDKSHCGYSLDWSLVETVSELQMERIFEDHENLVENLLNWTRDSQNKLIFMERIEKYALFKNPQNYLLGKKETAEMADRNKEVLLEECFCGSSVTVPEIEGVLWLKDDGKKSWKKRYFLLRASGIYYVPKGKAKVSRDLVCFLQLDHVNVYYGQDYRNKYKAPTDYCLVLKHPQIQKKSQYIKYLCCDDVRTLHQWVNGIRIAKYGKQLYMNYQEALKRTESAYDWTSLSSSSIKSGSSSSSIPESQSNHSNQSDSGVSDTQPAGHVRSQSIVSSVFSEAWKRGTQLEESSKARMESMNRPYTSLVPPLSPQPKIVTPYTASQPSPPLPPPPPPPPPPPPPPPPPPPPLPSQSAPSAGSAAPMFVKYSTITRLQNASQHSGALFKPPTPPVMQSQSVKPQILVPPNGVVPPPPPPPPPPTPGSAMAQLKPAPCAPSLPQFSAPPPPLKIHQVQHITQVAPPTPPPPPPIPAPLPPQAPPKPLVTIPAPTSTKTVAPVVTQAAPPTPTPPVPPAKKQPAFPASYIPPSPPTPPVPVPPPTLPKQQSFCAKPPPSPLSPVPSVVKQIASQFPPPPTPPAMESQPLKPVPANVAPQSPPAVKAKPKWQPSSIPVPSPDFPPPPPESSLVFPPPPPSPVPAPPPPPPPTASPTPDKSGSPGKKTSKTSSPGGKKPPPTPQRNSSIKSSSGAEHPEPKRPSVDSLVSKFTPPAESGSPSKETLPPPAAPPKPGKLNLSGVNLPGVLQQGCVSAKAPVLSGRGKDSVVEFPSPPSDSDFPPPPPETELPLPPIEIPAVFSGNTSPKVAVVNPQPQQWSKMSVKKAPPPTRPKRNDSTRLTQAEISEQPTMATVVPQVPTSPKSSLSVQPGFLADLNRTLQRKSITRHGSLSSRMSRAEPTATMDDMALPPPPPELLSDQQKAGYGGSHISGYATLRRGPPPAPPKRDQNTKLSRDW
UniProt Q9Y2J4: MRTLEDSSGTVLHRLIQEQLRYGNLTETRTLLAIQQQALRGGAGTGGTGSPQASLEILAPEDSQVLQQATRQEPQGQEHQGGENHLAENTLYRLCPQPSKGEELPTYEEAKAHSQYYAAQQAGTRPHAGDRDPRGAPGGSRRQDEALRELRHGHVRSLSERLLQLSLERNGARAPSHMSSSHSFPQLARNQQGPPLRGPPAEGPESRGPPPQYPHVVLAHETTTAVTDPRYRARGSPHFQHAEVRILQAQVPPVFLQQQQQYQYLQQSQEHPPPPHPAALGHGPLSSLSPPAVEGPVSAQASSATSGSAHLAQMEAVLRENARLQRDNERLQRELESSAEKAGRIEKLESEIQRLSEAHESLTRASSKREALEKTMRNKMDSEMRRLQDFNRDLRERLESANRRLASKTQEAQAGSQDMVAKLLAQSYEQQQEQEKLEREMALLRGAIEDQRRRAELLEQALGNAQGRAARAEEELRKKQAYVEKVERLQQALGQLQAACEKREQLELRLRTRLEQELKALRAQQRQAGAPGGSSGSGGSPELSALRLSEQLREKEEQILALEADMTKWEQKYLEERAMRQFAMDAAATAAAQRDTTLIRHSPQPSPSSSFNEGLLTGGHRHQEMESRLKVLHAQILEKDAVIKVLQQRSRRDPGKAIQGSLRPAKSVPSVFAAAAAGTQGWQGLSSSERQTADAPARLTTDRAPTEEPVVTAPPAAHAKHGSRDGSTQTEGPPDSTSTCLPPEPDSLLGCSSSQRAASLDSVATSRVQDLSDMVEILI
UniProt P46109: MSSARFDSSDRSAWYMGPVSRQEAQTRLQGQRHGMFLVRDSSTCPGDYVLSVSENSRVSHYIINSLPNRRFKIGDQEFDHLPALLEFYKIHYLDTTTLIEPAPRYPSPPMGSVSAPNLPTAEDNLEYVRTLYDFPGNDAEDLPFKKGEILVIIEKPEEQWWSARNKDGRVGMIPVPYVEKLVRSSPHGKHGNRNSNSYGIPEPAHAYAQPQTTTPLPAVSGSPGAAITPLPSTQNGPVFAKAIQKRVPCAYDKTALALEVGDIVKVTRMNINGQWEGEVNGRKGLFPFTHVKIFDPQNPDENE
UniProt P50552: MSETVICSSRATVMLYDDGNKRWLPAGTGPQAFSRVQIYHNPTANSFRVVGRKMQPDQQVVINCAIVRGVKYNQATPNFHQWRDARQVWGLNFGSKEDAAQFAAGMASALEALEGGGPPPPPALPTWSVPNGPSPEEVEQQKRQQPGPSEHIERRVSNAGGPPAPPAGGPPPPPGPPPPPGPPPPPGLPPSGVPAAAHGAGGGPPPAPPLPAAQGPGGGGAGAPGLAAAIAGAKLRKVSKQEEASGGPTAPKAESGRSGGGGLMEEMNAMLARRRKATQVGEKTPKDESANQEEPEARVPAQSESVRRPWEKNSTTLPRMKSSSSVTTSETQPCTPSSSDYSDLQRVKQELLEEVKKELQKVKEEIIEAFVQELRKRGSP
UniProt P35240: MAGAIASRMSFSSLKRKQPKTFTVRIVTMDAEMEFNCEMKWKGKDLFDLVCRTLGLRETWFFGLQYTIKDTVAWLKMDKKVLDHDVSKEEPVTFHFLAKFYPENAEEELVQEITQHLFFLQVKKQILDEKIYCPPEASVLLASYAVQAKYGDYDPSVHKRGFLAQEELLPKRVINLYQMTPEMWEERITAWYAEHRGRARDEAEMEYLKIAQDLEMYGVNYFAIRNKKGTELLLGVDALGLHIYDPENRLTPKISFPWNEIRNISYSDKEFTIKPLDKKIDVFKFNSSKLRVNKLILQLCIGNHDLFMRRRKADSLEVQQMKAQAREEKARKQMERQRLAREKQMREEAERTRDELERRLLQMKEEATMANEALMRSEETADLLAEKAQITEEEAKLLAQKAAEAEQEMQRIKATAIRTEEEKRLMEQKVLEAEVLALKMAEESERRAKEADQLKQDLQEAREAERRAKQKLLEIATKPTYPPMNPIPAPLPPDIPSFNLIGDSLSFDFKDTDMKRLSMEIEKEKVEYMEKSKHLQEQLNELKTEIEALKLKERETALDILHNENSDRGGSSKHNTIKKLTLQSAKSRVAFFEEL

Row | Substance | binding [1] | binding [2]
1 | CRK (CT10 Regulator of Kinase) (from UniProt P46108 1-304) | binds | binds
2 | RAPH1 (Ras Association and Pleckstrin Homology domains 1) (from UniProt Q70E73 1-1250) | binds | binds
3 | angiomotin-like 2 (AMOTL2) (from UniProt Q9Y2J4 1-779) | binds | binds

The remaining lines, values ahead:

Row | binding [1] | binding [2] | Substance
4 | binds | – | CRK-like proto-oncogene adaptor protein (CRKL) (from UniProt P46109 1-303)
5 | binds | binds | VASP (Vasodilator-stimulated phosphoprotein) (from UniProt P50552 1-380)
6 | – | binds | neurofibromin-2 (NF2) (from UniProt P35240 1-595)

From publication PMC11312940
